The values below come from article PMC10365314, “Noncanonical contribution of microglial transcription factor NR4A1 to post-stroke recovery through TNF mRNA destabilization”.

The chains behind the UniProt entries cited, without tags or fusion partners.
UniProt P12813: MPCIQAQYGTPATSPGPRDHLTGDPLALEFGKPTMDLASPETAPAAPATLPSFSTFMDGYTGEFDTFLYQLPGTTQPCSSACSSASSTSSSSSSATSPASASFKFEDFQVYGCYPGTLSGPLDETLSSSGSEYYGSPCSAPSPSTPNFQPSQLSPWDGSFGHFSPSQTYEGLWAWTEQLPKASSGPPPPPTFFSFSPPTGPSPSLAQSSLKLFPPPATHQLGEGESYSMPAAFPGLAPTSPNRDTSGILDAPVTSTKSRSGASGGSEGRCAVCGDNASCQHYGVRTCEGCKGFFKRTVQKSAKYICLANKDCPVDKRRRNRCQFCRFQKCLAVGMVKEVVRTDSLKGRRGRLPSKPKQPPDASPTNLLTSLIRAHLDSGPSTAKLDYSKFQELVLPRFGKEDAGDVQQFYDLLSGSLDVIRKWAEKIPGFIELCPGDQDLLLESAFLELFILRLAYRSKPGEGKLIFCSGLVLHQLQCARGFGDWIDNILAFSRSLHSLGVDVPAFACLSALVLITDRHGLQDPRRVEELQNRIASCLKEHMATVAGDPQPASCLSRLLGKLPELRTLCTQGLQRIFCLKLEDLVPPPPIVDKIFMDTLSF

Assay [1] concerns the target FLAG-NR4A1 (UniProt P12813). Description: co-IP; lysates of BV2 cells expressing FLAG-NR4A1, with or without ATP+LPS; anti-FLAG antibody or rabbit IgG, Protein G agarose; lysis buffer 25 mM Tris-HCl pH 7.4, 150 mM NaCl, 1 mM EDTA, 1% NP40, 5% glycerol; immunoblot for DCP1A.
Assay [2] has as its target NR4A1 (mouse (endogenous in primary microglia)) (UniProt P12813). The assay can be described thus: proximity ligation; Duolink in situ PLA on fixed, permeabilised primary microglia, unstimulated or ATP+LPS-treated; anti-NR4A1 and anti-DCP1A primary antibodies.

No constants are given. Whether binding was seen depends on the method and setting. In cells and extracts the contact can be indirect. Some binding calls cover weakened binding; strength is not graded here.

B1: DCP1A (protein, UniProt Q91YD3 1-602)
chain: MALSCSTVRPRRRGSALRSKMELLSRAEQEMSLAALKQHDPYITSIADLTGQVALYTFCPKANQWEKTDIEGTLFVYRRSASPYHGFTIVNRLNMHNLVEPVNKDLEFQLHEPFLLYRNASLSIYSIWFYDKNDCHRIAKLMADVVEEETRRSQQAARDKQSPSQANGCSDQRPIDILEMLSRAKDEYERNQMGGSNISSPGLQPSTQLSNLGSTETLEETPSGSQDKSAPSGHKHLTVEELFGTSLPKEQPTAMGLESEDTDKLLGDASQKEPSSFLPFPFEQSGGAPQSENLGIHSAAHHTVQPEVSTPVLITPASIAQSGDKHPPSYTLPLSPVLSPTLPAEAPTTQVPHLPRNSTMIQAVKTTPRQKSPLLNQPVPELSHSSLVASQSPFRAPVSLANPAGTALPSVDLLQKLRLTPQHDQIQAQPLGKGTMAPSFSSAAGQLATPESFIEPSSKTAAARAAVSASLSNMVLAPTLQSMQQNQDPEVFSQPKVLPSAIPIAGSPLVPATTTAVSSVLLSPSVFQQTVPRAADLERKASSPSPLTVGTAESQRKPSIILSKSQLQDTLIHLIKNDSSFLSTLHAVYLQVLTKNKDNHNL
For B1, the binding result in assay [1] and in assay [2] was “binds” in each case.
